Source: PubChem BioAssay AID540276 (National Center for Advancing Translational Sciences (NCATS), 2011)
Among all 300,000 compounds or so, about 5,400 (1.8%) were called active. Inconclusive results, whose numbers are uncertain, are shown with a selection of clear calls. Calls come from the whole dose curve; tested in HEK293 cells. A potency beside an inconclusive call is a rough fit, not a confirmed value.

assay: qHTS for inhibitors of binding or entry into cells for Marburg Virus; conditions: Marburg virus pseudotyped entry inhibition, cell reporter; series mostly up to 37.8 µM
Potency is the fitted concentration of half-maximal effect.

Row | SMILES | Potency
1 | Cc1ccc(S(=O)(=O)Nc2cccc3cccnc23)cc1 | inconclusive: 6.31 µM [inhibitor, full curve, poor fit]
2 | CC(=O)c1ccccc1NC(=O)c1ccc(OCc2c(C)noc2C)cc1 | inconclusive: 12.6 µM [inhibitor, partial curve, poor fit]
3 | Cc1ccc(NS(=O)(=O)c2c(C)[nH]c(C)c2C(=O)N2CCCCC2)cc1C | inconclusive: 1.58 µM [inhibitor, partial curve, poor fit]
4 | CC(C)Cn1c(=O)c2ccccc2n2c(CCC(=O)NCc3ccc(Cl)cc3)nnc12 | inactive
5 | O=C(Nc1ccccc1)N(C1=NCCCCS1)c1cccc2ccccc12 | inactive
6 | COc1ccc(Nc2cnn(-c3nc4ccccc4s3)c(=O)c2Cl)cc1 | inconclusive: 35.5 µM [inhibitor, single point]
7 | COc1cc(SC)ccc1C(=O)OCC(=O)N1CCN(C(C)=O)CC1 | inconclusive: 1.26 µM [inhibitor, single point]
8 | Cc1nn(-c2ccccc2)c(C)c1C(=O)OC(C)C(=O)NC1CCCCC1 (configuration not stated) | inconclusive: 7.08 µM [inhibitor, partial curve, poor fit]
9 | CC1CCCN(c2nc3nonc3nc2N2CCCC(C)C2)C1 (configuration not stated) | inactive
10 | Cc1ccc(NC(=O)c2ccc(OC(=O)COc3ccc(Cl)cc3C)cc2)cc1 | inconclusive: 6.51 µM [activator, single point]
11 | COc1ccc(CCNC(=O)c2nnn(-c3cc(C)cc(C)c3)c2N)cc1OC | inconclusive: 0.461 µM [inhibitor, full curve, poor fit]
12 | O=C(CCS(=O)(=O)c1cc(Br)cc2c1N(C(=O)C1CC1)CC2)Nc1ccc(F)cc1 | inconclusive: 28.2 µM [activator, single point]
13 | NS(=O)(=O)c1ccc(NC(=O)COC(=O)c2c3c(nc4ccccc24)/C(=C\c2ccc4c(c2)OCO4)CCC3)cc1 | active: 11.6 µM
14 | O=C(C1=C(O)C(=O)N(CCN2CCOCC2)C1c1ccccn1)c1cccs1 (configuration not stated) | inactive
15 | Cc1nn(-c2ccc([N+](=O)[O-])cc2)c(N)c1-c1ccccc1 | inconclusive: 0.562 µM [activator, full curve]
16 | Cc1ccc(Cl)cc1N1CCN(C(=O)c2ccc3c(c2)N(Cc2ccccc2F)C(=O)c2ccccc2S3=O)CC1 (configuration not stated) | inconclusive: 3.16 µM [inhibitor, full curve]
17 | C(=C\c1nnc2c3ccccc3ncn12)/c1ccccc1 | inconclusive: 2 µM [inhibitor, full curve, poor fit]
18 | CCCCOc1ccc(-c2nnn(CC(=O)NCCc3c[nH]c4ccccc34)n2)cc1 | inactive
19 | CCOc1ccc(-c2cn3ccccc3n2)cc1[N+](=O)[O-] | inconclusive: 20 µM [inhibitor, partial curve, poor fit]
20 | CCc1cccc(NC(=O)C(NS(=O)(=O)c2ccc3nc(C)sc3c2)C(C)C)c1 (configuration not stated) | inactive
21 | CC(C)c1ccc2c(c1)NC(c1ccncc1)=NC(c1cccs1)=N2 | inconclusive: 35.5 µM [inhibitor, single point]
22 | COc1cccc(NC(CNS(=O)(=O)c2ccc(Cl)cc2)c2ccccc2)c1 (configuration not stated) | inconclusive: 20 µM [inhibitor, partial curve, poor fit]
23 | CCc1ccc(C2=NN(CCC(=O)NC(C)CCc3ccccc3)C(=O)CC2)cc1 (configuration not stated) | inconclusive: 35.5 µM [inhibitor, single point]

As entered above:
Cc1ccc(NS(=O)(=O)c2c(C)[nH]c(C)c2C(=O)N2CCCCC2)cc1C | Potency: inconclusive: 1.58 µM [inhibitor, partial curve, poor fit]
Cc1ccc(NC(=O)c2ccc(OC(=O)COc3ccc(Cl)cc3C)cc2)cc1 | Potency: inconclusive: 6.51 µM [activator, single point]

Remaining list, next part

Row | SMILES | Potency
24 | Cc1oc2c(O)c(O)ccc2c(=O)c1-c1ccc(Cl)cc1 | inconclusive: 35.5 µM [inhibitor, single point]
25 | COc1ccccc1Oc1ccc(N/C=C2/CCCC2=O)cc1 | inconclusive: 35.5 µM [inhibitor, single point]
26 | O=C(N/N=C/c1cc(Cl)ccc1O)c1ccc(Br)cc1 | inconclusive: 2.24 µM [inhibitor, partial curve, poor fit]
27 | O=[N+]([O-])/C=C\c1ccc(N2CCCC2)c(F)c1 | inconclusive: 20 µM [inhibitor, partial curve, poor fit]
28 | COc1ccc(N(C)S(=O)(=O)c2ccc(Cl)c(C(=O)NCCc3ccc(Cl)cc3)c2)cc1 | inconclusive: 3.55 µM [inhibitor, partial curve, poor fit]
29 | Cc1sc2c(c1C)c(=O)n(-c1ccc(F)cc1)c(=O)n2CC(=O)NCc1ccco1 | inconclusive: 1.78 µM [inhibitor, partial curve, poor fit]
30 | Nc1ccc2c(c1)Cc1c(F)cccc1-2 | inconclusive: 2 µM [activator, partial curve, poor fit]
31 | Cc1cc(C(=O)OC(C)C(=O)Nc2nc(-c3ccccc3)cs2)c(C)o1 (configuration not stated) | inconclusive: 29.1 µM [inhibitor, single point]
32 | COc1ccc(N=C2SC(CC(=O)Nc3ccccc3F)C(=O)N2Cc2ccco2)cc1 (configuration not stated) | inactive
33 | CC(=O)Nc1nc(C(=O)O)cs1 | inconclusive: 0.501 µM [activator, full curve, poor fit]
34 | COc1cccc2c1C(=N)c1c(O)c3c(c(O)c1C2=O)CC(O)(C(C)=O)CC3OC1CC(N)C(O)C(C)O1 (configuration not stated) | active: 0.355 µM
35 | O=C(N/N=C/c1ccc([N+](=O)[O-])o1)c1ccc(O)cc1 | inconclusive: 2.91 µM [inhibitor, partial curve, poor fit]
36 | COc1ccc(C(=O)Cn2c(C(C)=O)nc3ccccc32)cc1 | inconclusive: 25.1 µM [inhibitor, single point]
37 | Cn1nc(-c2ccc(Cl)cc2)nc2c(=O)n(C)c(=O)nc1-2 | inactive
38 | Cc1[nH]nc(C(=O)NN=Cc2ccccc2Cl)c1N=NN(C)C | inconclusive: 3.55 µM [inhibitor, partial curve, poor fit]
39 | CCN(CC)S(=O)(=O)c1ccc(N2CCc3ccccc3C2)nc1 | inconclusive: 14.1 µM [inhibitor, single point]
40 | COC(=O)C(C(=O)OC)C(C(=O)OC)C(C(=O)OC)C(=O)OC | inconclusive: 1.58 µM [inhibitor, single point]
41 | O=C(Nc1ccc2c(c1)nc1n2CCSC1)c1ccccc1 | inconclusive: 16.4 µM [inhibitor, single point]
42 | O=C(NC(=S)Nc1cc([N+](=O)[O-])ccc1O)c1ccc2c(c1)OCO2 | inconclusive: 12.6 µM [inhibitor, partial curve]
43 | O=C(N/N=C/c1ccc(O)c2ccccc12)c1cccnc1 | inactive
44 | Fc1ccc(CSc2nncn2NCc2ccccc2)cc1 | inactive
45 | CCOC(=O)c1cccc(NC(=O)CSc2nc3ccccc3c(=O)n2CCOC)c1 | inconclusive: 13 µM [inhibitor, partial curve, poor fit]
46 | CCOC(=O)C1CCCN(Cc2c(Cl)cccc2Cl)C1 (configuration not stated) | inconclusive: 29.1 µM [inhibitor, single point]

Row | SMILES | Potency
47 | O=C(O)c1cccc(N/N=C/c2ccc(-c3ccccc3)cc2)c1 | inconclusive: 2.82 µM [inhibitor, full curve, poor fit]
48 | COc1ccc(N2CCN(C(=O)Cn3cnc4sc(C)c(S(=O)(=O)N5CCCCC5)c4c3=O)CC2)cc1 | inactive
49 | COc1cc(C)ccc1OCC(=O)Nc1ccccc1N1CCOCC1 | inactive
50 | CCOC(=O)c1c(-c2ccc(C)cc2)csc1NC(=O)/C(C#N)=C/c1ccc(O)c(OC)c1 | inconclusive: 5.62 µM [activator, single point]
51 | Cn1c2ccccc2c(=O)c2c(=O)n(Cc3ccco3)c(COc3ccccc3)nc21 | inconclusive: 4.47 µM [inhibitor, full curve, poor fit]
52 | CCC1(C)Cc2c(sc3nnn(CC(=O)Nc4cccc5ccccc45)c(=O)c23)CO1 (configuration not stated) | inconclusive: 16.4 µM [inhibitor, partial curve]
53 | Nc1nccc(SCc2ccc(Cl)cc2Cl)n1 | inactive
54 | CCc1nnc(NC(=O)CCC(=O)N2CCN(c3cc(Cl)ccc3C)CC2)s1 | inactive
55 | COC(=O)c1cc(-c2ccc(Cl)cc2)c2c(=O)[nH]c(=O)n(C)c2n1 | inactive
56 | Cc1ccc(NC(=O)N2CCc3ccccc32)cc1 | inconclusive: 0.411 µM [activator, partial curve]
57 | O=C(NCCCc1ccncc1)C1CCC(=O)N(CCc2cccc(F)c2)C1 (configuration not stated) | inconclusive: 14.1 µM [inhibitor, single point]
58 | COc1ccc(C(=O)Nc2ccccc2C(=O)NCCCn2ccnc2)cc1 | inactive
59 | CN1CCN(C2=Cc3ccccc3Sc3cc(F)c(Cl)cc32)CC1 | inconclusive: 10 µM [inhibitor, single point]
60 | COCCNC(=S)NNC(=O)c1ccc(-n2cnnn2)cc1 | inconclusive: 5.62 µM [activator, single point]
61 | CC(C)CC(NC(=O)C(NC(=O)OC(C)(C)C)C(C)C)C(=O)NC(CCC(=O)OCc1ccccc1)C(N)=O (configuration not stated) | inactive
62 | CCCCCCCC1=Cc2ccccc2C(C(C(C)=O)C(=O)OC)N1C(=O)OC (configuration not stated) | inactive
63 | O=C(O)c1cc(-c2ccccc2Cl)n(-c2cccc(Cl)c2)n1 | inconclusive: 35.5 µM [activator, single point]
64 | c1ccc(CSc2snnc2-c2ccccc2)cc1 | inconclusive: 2.59 µM [activator, single point]
65 | Cc1ccc(S(=O)(=O)NCC(=O)N(CC(=O)NCc2ccco2)Cc2ccccc2)cc1 | inactive
66 | O=C(/C=C/c1ccco1)Nc1ccc(-c2nc3ccccc3[nH]2)cc1 | inconclusive: 0.0891 µM [inhibitor, full curve, poor fit]
67 | O=C(CN(C(=O)CCNC(=O)c1ccco1)c1ccccc1)NC1CCCC1 | inconclusive: 29.1 µM [activator, single point]

In another format: results already given.
Row	SMILES	Potency
45	CCOC(=O)c1cccc(NC(=O)CSc2nc3ccccc3c(=O)n2CCOC)c1	inconclusive: 13 µM [inhibitor, partial curve, poor fit]
46	CCOC(=O)C1CCCN(Cc2c(Cl)cccc2Cl)C1 (configuration not stated)	inconclusive: 29.1 µM [inhibitor, single point]
48	COc1ccc(N2CCN(C(=O)Cn3cnc4sc(C)c(S(=O)(=O)N5CCCCC5)c4c3=O)CC2)cc1	inactive
49	COc1cc(C)ccc1OCC(=O)Nc1ccccc1N1CCOCC1	inactive
50	CCOC(=O)c1c(-c2ccc(C)cc2)csc1NC(=O)/C(C#N)=C/c1ccc(O)c(OC)c1	inconclusive: 5.62 µM [activator, single point]
51	Cn1c2ccccc2c(=O)c2c(=O)n(Cc3ccco3)c(COc3ccccc3)nc21	inconclusive: 4.47 µM [inhibitor, full curve, poor fit]
52	CCC1(C)Cc2c(sc3nnn(CC(=O)Nc4cccc5ccccc45)c(=O)c23)CO1 (configuration not stated)	inconclusive: 16.4 µM [inhibitor, partial curve]
53	Nc1nccc(SCc2ccc(Cl)cc2Cl)n1	inactive
54	CCc1nnc(NC(=O)CCC(=O)N2CCN(c3cc(Cl)ccc3C)CC2)s1	inactive
55	COC(=O)c1cc(-c2ccc(Cl)cc2)c2c(=O)[nH]c(=O)n(C)c2n1	inactive
56	Cc1ccc(NC(=O)N2CCc3ccccc32)cc1	inconclusive: 0.411 µM [activator, partial curve]
57	O=C(NCCCc1ccncc1)C1CCC(=O)N(CCc2cccc(F)c2)C1 (configuration not stated)	inconclusive: 14.1 µM [inhibitor, single point]
58	COc1ccc(C(=O)Nc2ccccc2C(=O)NCCCn2ccnc2)cc1	inactive
59	CN1CCN(C2=Cc3ccccc3Sc3cc(F)c(Cl)cc32)CC1	inconclusive: 10 µM [inhibitor, single point]
60	COCCNC(=S)NNC(=O)c1ccc(-n2cnnn2)cc1	inconclusive: 5.62 µM [activator, single point]
62	CCCCCCCC1=Cc2ccccc2C(C(C(C)=O)C(=O)OC)N1C(=O)OC (configuration not stated)	inactive
63	O=C(O)c1cc(-c2ccccc2Cl)n(-c2cccc(Cl)c2)n1	inconclusive: 35.5 µM [activator, single point]
64	c1ccc(CSc2snnc2-c2ccccc2)cc1	inconclusive: 2.59 µM [activator, single point]
65	Cc1ccc(S(=O)(=O)NCC(=O)N(CC(=O)NCc2ccco2)Cc2ccccc2)cc1	inactive
67	O=C(CN(C(=O)CCNC(=O)c1ccco1)c1ccccc1)NC1CCCC1	inconclusive: 29.1 µM [activator, single point]
